PubChem BioAssay AID1224830 – NIAID | 2016
The whole screen tested about 18,000 reagents; this is an unselected part. About 2,900 of them (16%) were called active. 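Calls are made per well; low scores hint the gene aids the LPS response, high scores that it dampens it.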 Repeated entries: four replicate wells of each siRNA pool. No sequences are given here.

Assay: 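Genes whose knock-down alters the TNF-alpha reporter response to LPS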 (primary screen)
Cell system: human THP-1 monocytic leukaemia cells, TNF dual-luciferase reporter clone, PMA-differentiated to macrophage-like cells
Reagents: siRNA pool against human genes, 50 nM
Duration: LPS for 4 h, given about 3 days after siRNA transfection
Challenge: bacterial LPS (TLR4 ligand), 10 ng/ml
Detection: 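Ratio of firefly to renilla light, scaled to the plate median and expressed as a robust z-score per replicate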
Direction: TNF reporter robust z-score: higher = stronger TNF reporter response to LPS
Rule for the call: 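Each well counts as active if its z-score is over 2.8 or under -1.5; controls are left without a call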

gene | TNF reporter robust z-score | call
NPIPA1 | 0.14 | inactive
NPIPA1 | 0.62 | inactive
NPIPA1 | 0.49 | inactive
OR4D1 | -0.81 | inactive
OR4D1 | -1.12 | inactive
OR4D1 | -0.75 | inactive
OR4D1 | -1 | inactive
MAGEC1 | 0.07 | inactive
MAGEC1 | -0.4 | inactive
MAGEC1 | -0.08 | inactive
MAGEC1 | 0.02 | inactive
FBXO44 | 3.04 | active
FBXO44 | 1.32 | inactive
FBXO44 | 0.36 | inactive
FBXO44 | 1.93 | inactive
LGALS14 | -1.73 | active
LGALS14 | -0.6 | inactive
LGALS14 | -1.64 | active
LGALS14 | -0.79 | inactive
OPRD1 | 1.33 | inactive
OPRD1 | -0.09 | inactive
OPRD1 | 0 | inactive
OPRD1 | 0.03 | inactive
ICAM4 | 0.15 | inactive
ICAM4 | 2.26 | inactive
ICAM4 | 1.7 | inactive
ICAM4 | 2.33 | inactive
FPR3 | -1.05 | inactive
FPR3 | -0.35 | inactive
FPR3 | -0.9 | inactive
MAPKAPK3 | -0.55 | inactive
MAPKAPK3 | -1.53 | active
MAPKAPK3 | -0.68 | inactive
MAPKAPK3 | -1.42 | inactive
SF3B2 | -1.3 | inactive
SF3B2 | -0.7 | inactive
SF3B2 | -1.01 | inactive
SF3B2 | -0.97 | inactive
SREBF2 | -0.46 | inactive
SREBF2 | -1.08 | inactive
SREBF2 | -0.18 | inactive
SREBF2 | 0.04 | inactive
ROR1 | -1.26 | inactive
ROR1 | 0.6 | inactive
ROR1 | -0.68 | inactive
ROR1 | -0.51 | inactive
CLDN18 | 0.7 | inactive
CLDN18 | 0.25 | inactive
CLDN18 | 0.4 | inactive
CLDN18 | 1.2 | inactive
AWAT2 | 1.77 | inactive
AWAT2 | -0.06 | inactive
AWAT2 | -0.25 | inactive
AWAT2 | -0.88 | inactive
MEP1A | -0.6 | inactive
MEP1A | 0.45 | inactive
MEP1A | -1.08 | inactive
MEP1A | -0.81 | inactive
FAM20C | – | inactive
FAM20C | -1.1 | inactive
FAM20C | -1.45 | inactive
FAM20C | -1.35 | inactive
MORF4 | -0.06 | inactive
MORF4 | -0.37 | inactive
MORF4 | -1.19 | inactive
MORF4 | 0.14 | inactive
RDH5 | 0.22 | inactive
RDH5 | 0.76 | inactive
RDH5 | -0.09 | inactive
RDH5 | 0 | inactive
RPTOR | 0.26 | inactive
RPTOR | 0.11 | inactive
RPTOR | -0.23 | inactive
RPTOR | 0.19 | inactive
UGT3A1 | 1.53 | inactive
UGT3A1 | 3.86 | active
UGT3A1 | 0.56 | inactive
UGT3A1 | -0.06 | inactive
ZNF519 | -0.86 | inactive
ZNF519 | -0.46 | inactive
ZNF519 | -0.97 | inactive
ZNF519 | -0.04 | inactive
KRT4 | -0.6 | inactive
KRT4 | -0.07 | inactive
KRT4 | -0.97 | inactive
KRT4 | -0.32 | inactive
NKG7 | 0.44 | inactive
NKG7 | -0.33 | inactive
NKG7 | -0.16 | inactive
NKG7 | -0.95 | inactive
RPS15 | -0.31 | inactive
RPS15 | 0.62 | inactive
RPS15 | 0.8 | inactive
RPS15 | 0.21 | inactive
FGF17 | -0.86 | inactive
FGF17 | -0.91 | inactive
FGF17 | -1.19 | inactive
FGF17 | -0.92 | inactive
DSEL | 0.13 | inactive
DSEL | 0.21 | inactive
DSEL | 0.28 | inactive
KLK11 | -0.55 | inactive
KLK11 | 1.08 | inactive
KLK11 | -0.52 | inactive
KLK11 | -1.15 | inactive
CDC34 | 0.03 | inactive
CDC34 | -0.95 | inactive
CDC34 | -1.23 | inactive
CDC34 | -0.5 | inactive
GART | -0.11 | inactive
GART | 0.33 | inactive
GART | 0.15 | inactive
GART | 0.22 | inactive

Hits, among the entries above:
gene | TNF reporter robust z-score | call
FBXO44 | 3.04 | active
LGALS14 | -1.73 | active
LGALS14 | -1.64 | active
MAPKAPK3 | -1.53 | active
UGT3A1 | 3.86 | active
